# Melanoma cell counts after drug treatment

Values as published with doi:10.1371/journal.pone.0140310, rounded.

Drug key:
BMS-536924: Cc1cc(N2CCOCC2)cc2[nH]c(-c3c(NC[C@@H](O)c4cccc(Cl)c4)cc[nH]c3=O)nc12 at 0.2 µM
lenalidomide: Nc1cccc2c1CN(C1CCC(=O)NC1=O)C2=O (stereo not shown) at 1 µM
GW0742: Cc1cc(SCc2sc(-c3ccc(C(F)(F)F)c(F)c3)nc2C)ccc1OCC(=O)O at 2 µM
bortezomib: CC(C)C[C@H](NC(=O)[C@H](Cc1ccccc1)NC(=O)c1cnccn1)B(O)O at 0.001 µM
CX-4945: O=C(O)c1ccc2c(c1)nc(Nc1cccc(Cl)c1)c1ccncc12 at 0.4 µM
enzastaurin: Cn1cc(C2=C(c3cn(C4CCN(Cc5ccccn5)CC4)c4ccccc34)C(=O)NC2=O)c2ccccc21 at 0.8 µM
veliparib: C[C@]1(c2nc3c(C(N)=O)cccc3[nH]2)CCCN1 at 1.4 µM
erlotinib: C#Cc1cccc(Nc2ncnc3cc(OCCOC)c(OCCOC)cc23)c1 at 0.8 µM
GW2580: COc1ccc(COc2ccc(Cc3cnc(N)nc3N)cc2OC)cc1 at 1 µM
GSK0660: COC(=O)c1sccc1S(=O)(=O)Nc1ccc(Nc2ccccc2)cc1OC at 1 µM
CHIR-265: Cn1c(Nc2ccc(C(F)(F)F)cc2)nc2cc(Oc3ccnc(-c4ncc(C(F)(F)F)[nH]4)c3)ccc21 at 0.08 µM
XAV939: Oc1nc(-c2ccc(C(F)(F)F)cc2)nc2c1CSCC2 at 2 µM
RKI-983: C[C@@H](N)c1ccc(C(=O)Nc2ccnc3[nH]ccc23)cc1 at 0.4 µM

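Human melanoma cell lines in 1,536-well plates were treated with two drugs together for 72 h, then fixed, stained and imaged. The read-out is cell count (nuclei) in % of the DMSO control; lower values mean stronger growth inhibition or killing. Every drug was used at one fixed concentration, the lower of two screened (a fifth of the higher). No replicate spread is given; individual values may be noisy.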 An unselected part of the screen is shown.

| Combination | COLO 829 |
|---|---|
| GW2580 + CHIR-265 | 94.6 |
| CX-4945 + bortezomib | 61.2 |
| GW0742 + erlotinib | 89.0 |
| BMS-536924 + bortezomib | 69.5 |
| GW2580 + BMS-536924 | 108 |
| GW2580 + erlotinib | 126 |
| CX-4945 + RKI-983 | 114 |
| XAV939 + lenalidomide | 107 |
| enzastaurin + CHIR-265 | 100 |
| GW0742 + XAV939 | 95.1 |
| BMS-536924 + XAV939 | 108 |
| GW0742 + veliparib | 108 |
| erlotinib + XAV939 | 95.0 |
| lenalidomide + GSK0660 | 90.4 |
| veliparib + GSK0660 | 81.1 |
| enzastaurin + lenalidomide | 101 |
| CX-4945 + enzastaurin | 121 |
| GW2580 + bortezomib | 93.9 |
| GW2580 + lenalidomide | 91.7 |
| GW0742 + CX-4945 | 88.3 |
| CHIR-265 + RKI-983 | 62.3 |
| CHIR-265 + XAV939 | 92.8 |
| bortezomib + enzastaurin | 87.2 |
| BMS-536924 + GSK0660 | 92.2 |
| veliparib + CX-4945 | 74.9 |

Repeated from the top, 2 entries:

Combination,COLO 829
GW2580 + CHIR-265,94.6
CX-4945 + bortezomib,61.2